# Measured values taken from PMC12714136, “14-3-3θ phosphorylation at S232 reduces its interactome and regulates axonal trafficking” (Disease Models & Mechanisms, 2025).
# Results are given in words; binding and its absence hold for the method and conditions named. In cells and extracts the contact can be indirect. Some binding calls cover weakened binding; strength is not graded here. For some of these results: Tags and fused reporters may be left off the sequences shown.
# T1: dynamin 1 (M17 neuroblastoma cells) (human (endogenous in SK-N-BE(2)-M17)) (UniProt Q05193)
# T1 sequence: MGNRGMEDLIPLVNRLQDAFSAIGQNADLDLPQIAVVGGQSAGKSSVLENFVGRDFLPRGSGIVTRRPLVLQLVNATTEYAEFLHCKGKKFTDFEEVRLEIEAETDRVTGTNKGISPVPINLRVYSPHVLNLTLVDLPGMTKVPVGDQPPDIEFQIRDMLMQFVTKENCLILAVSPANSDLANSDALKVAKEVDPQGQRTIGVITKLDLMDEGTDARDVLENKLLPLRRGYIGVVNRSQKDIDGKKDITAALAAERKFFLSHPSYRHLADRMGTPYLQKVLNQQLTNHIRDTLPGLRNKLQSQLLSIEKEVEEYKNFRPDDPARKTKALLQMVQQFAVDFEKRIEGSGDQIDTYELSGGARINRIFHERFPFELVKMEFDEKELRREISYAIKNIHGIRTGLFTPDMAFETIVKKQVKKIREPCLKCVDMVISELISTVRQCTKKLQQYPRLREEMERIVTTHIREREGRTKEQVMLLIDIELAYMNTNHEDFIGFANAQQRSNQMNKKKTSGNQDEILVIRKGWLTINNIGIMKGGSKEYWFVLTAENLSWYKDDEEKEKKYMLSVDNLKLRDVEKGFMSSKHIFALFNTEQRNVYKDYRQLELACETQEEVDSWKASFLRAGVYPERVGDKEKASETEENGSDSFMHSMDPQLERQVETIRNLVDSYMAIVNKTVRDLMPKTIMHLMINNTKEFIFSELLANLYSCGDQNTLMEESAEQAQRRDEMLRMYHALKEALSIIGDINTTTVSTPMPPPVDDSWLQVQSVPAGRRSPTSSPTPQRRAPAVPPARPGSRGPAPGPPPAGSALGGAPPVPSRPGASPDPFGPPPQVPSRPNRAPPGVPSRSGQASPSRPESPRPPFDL
# T2: nuclear distribution protein nude-like 1 (M17 neuroblastoma cells) (human (endogenous in SK-N-BE(2)-M17)) (UniProt Q9GZM8)
# T2 sequence: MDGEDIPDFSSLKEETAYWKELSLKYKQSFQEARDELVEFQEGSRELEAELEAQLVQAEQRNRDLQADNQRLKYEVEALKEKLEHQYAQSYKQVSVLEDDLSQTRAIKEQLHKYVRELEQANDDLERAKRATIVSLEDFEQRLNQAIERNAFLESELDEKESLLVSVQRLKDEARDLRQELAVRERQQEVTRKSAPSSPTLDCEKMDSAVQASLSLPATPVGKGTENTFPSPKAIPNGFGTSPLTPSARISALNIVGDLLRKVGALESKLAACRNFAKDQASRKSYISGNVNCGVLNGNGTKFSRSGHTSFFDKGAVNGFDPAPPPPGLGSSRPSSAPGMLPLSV
# T3: breakpoint cluster region (M17 neuroblastoma cells) (human (endogenous in SK-N-BE(2)-M17)) (UniProt P11274)
# T3 sequence: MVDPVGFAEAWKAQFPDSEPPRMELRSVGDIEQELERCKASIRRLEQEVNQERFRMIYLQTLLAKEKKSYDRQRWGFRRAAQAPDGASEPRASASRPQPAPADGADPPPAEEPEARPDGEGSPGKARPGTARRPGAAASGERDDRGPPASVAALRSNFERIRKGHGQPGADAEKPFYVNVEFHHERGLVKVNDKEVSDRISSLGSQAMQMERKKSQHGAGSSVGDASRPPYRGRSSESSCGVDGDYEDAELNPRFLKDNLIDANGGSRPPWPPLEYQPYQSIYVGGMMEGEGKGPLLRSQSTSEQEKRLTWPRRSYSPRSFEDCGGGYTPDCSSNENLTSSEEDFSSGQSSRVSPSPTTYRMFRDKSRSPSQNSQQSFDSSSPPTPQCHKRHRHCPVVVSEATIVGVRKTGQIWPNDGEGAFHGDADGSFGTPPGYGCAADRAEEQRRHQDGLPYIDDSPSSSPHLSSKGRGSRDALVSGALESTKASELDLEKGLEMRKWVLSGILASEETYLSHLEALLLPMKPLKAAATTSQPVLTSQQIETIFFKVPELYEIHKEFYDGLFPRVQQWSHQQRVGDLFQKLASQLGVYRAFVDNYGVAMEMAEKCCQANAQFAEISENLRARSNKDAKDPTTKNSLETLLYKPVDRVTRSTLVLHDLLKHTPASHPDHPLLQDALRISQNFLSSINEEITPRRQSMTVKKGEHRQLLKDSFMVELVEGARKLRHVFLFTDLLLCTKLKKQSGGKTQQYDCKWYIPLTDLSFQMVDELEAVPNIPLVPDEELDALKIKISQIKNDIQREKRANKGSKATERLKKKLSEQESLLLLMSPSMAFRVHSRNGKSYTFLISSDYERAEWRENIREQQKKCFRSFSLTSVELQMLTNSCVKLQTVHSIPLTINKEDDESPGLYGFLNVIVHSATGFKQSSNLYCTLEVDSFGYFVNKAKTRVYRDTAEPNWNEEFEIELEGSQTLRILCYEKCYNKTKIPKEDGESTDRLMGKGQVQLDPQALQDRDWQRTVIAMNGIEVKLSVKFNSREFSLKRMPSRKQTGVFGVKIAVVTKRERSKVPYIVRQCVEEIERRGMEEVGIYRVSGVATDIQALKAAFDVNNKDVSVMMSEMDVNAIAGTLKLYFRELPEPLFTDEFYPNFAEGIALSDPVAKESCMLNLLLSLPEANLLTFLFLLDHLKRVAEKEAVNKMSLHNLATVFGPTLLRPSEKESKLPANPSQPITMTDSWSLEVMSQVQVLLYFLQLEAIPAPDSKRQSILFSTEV
# T4: dynamin 1 (mouse cortex) (mouse (endogenous in cortex)) (UniProt P39053)
# T4 sequence: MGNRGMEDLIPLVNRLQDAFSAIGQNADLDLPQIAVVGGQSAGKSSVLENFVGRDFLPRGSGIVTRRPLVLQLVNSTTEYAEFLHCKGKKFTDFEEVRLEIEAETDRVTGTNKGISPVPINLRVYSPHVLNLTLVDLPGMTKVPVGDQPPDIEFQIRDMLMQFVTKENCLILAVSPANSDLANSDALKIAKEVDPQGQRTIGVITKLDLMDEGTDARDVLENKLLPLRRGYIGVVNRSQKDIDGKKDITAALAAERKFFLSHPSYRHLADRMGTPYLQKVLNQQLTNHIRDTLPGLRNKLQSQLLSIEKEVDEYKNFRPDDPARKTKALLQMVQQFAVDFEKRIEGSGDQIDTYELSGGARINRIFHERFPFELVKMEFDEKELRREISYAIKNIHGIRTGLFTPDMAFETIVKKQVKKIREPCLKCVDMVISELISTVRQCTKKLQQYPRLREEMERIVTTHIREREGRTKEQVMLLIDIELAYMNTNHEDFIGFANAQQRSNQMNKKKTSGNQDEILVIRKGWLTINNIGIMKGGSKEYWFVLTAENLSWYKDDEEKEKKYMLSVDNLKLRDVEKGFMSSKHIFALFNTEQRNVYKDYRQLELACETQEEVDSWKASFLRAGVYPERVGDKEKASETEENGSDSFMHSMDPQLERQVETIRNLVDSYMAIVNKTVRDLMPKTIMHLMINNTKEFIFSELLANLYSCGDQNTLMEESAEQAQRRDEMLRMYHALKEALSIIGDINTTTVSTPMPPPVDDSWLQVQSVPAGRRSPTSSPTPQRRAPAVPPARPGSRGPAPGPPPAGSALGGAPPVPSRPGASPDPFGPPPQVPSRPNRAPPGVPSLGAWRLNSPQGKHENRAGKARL
# Legend:
# [1] = target: T1, dynamin 1 (M17 neuroblastoma cells) (human (endogenous in SK-N-BE(2)-M17)); assay: proximity ligation; fixed SK-N-BE(2)-M17 cells; antibodies against 14-3-3θ and β-spectrin or dynamin 1; single-antibody controls
# [2] = target: T2, nuclear distribution protein nude-like 1 (M17 neuroblastoma cells) (human (endogenous in SK-N-BE(2)-M17)); assay: proximity ligation; fixed M17 cells stably expressing V5-tagged 14-3-3θ S232A or S232D; anti-V5 with anti-NDEL1 or anti-BCR antibody; DuoLink probes; objects per area, normalised
# [3] = target: T3, breakpoint cluster region (M17 neuroblastoma cells) (human (endogenous in SK-N-BE(2)-M17)); assay: as above
# [4] = target: T4, dynamin 1 (mouse cortex) (mouse (endogenous in cortex)); assay: co-IP; wild-type mouse cortex in Pierce IP buffer (25 mM Tris-HCl pH 7.4, 150 mM NaCl, 1 mM EDTA, 1% NP40, 5% glycerol); IP with anti-β-spectrin or anti-dynamin 1 antibody overnight, rabbit IgG control, dynabeads; blot for 14-3-3θ
binder,measurement,setting,value
"14-3-3θ (endogenous, M17 neuroblastoma cells) (protein, UniProt P27348 1-245) MEKTELIQKAKLAEQAERYDDMATCMKAVTEQGAELSNEERNLLSVAYKNVVGGRRSAWRVISSIEQKTDTSDKKLQLIKDYREKVESELRSICTTVLELLDKYLIANATNPESKVFYLKMKGDYFRYLAEVACGDDRKQTIDNSQGAYQEAFDISKKEMQPTHPIRLGLALNFSVFYYEILNNPELACTLAKTAFDEAIAELDTLNEDSYKDSTLIMQLLRDNLTLWTSDSAGEECDAAEGAEN",binding,[1],binds
"V5-tagged 14-3-3θ S232D (protein, UniProt P27348 1-245) MEKTELIQKAKLAEQAERYDDMATCMKAVTEQGAELSNEERNLLSVAYKNVVGGRRSAWRVISSIEQKTDTSDKKLQLIKDYREKVESELRSICTTVLELLDKYLIANATNPESKVFYLKMKGDYFRYLAEVACGDDRKQTIDNSQGAYQEAFDISKKEMQPTHPIRLGLALNFSVFYYEILNNPELACTLAKTAFDEAIAELDTLNEDSYKDSTLIMQLLRDNLTLWTSDDAGEECDAAEGAEN",binding,[2],binds
"V5-tagged 14-3-3θ S232A (natural protein, UniProt P27348 1-245, looked up, 14-3-3 protein theta with S232A; also called V5-14-3-3θ phospho-mutant S232A; source: SK-N-BE(2)-M17 cells, stably transfected (fixed cells)) MEKTELIQKAKLAEQAERYDDMATCMKAVTEQGAELSNEERNLLSVAYKNVVGGRRSAWRVISSIEQKTDTSDKKLQLIKDYREKVESELRSICTTVLELLDKYLIANATNPESKVFYLKMKGDYFRYLAEVACGDDRKQTIDNSQGAYQEAFDISKKEMQPTHPIRLGLALNFSVFYYEILNNPELACTLAKTAFDEAIAELDTLNEDSYKDSTLIMQLLRDNLTLWTSDAAGEECDAAEGAEN",binding,[3],binds
"14-3-3θ (wild type, mouse cortex) (protein, UniProt P68254 1-245) MEKTELIQKAKLAEQAERYDDMATCMKAVTEQGAELSNEERNLLSVAYKNVVGGRRSAWRVISSIEQKTDTSDKKLQLIKDYREKVESELRSICTTVLELLDKYLIANATNPESKVFYLKMKGDYFRYLAEVACGDDRKQTIENSQGAYQEAFDISKKEMQPTHPIRLGLALNFSVFYYEILNNPELACTLAKTAFDEAIAELDTLNEDSYKDSTLIMQLLRDNLTLWTSDSAGEECDAAEGAEN",binding,[4],binds
